Experimental data published in patent US20230270148A1, “BITTER BLOCKERS AND RELATED METHODS OF USE” (Conagen Inc., priority 2020, published 2023).
For some of these results: The name of at least one read-out is uncertain. For some of these results: For at least one compound, name, drawing or mass did not settle the structure. Some results were stated once for a whole list of compounds, not compound by compound.

What was measured:
Format in all cases: in vivo
[1] = test system: full spectrum CBD hemp oil nanoemulsion; test: Sensory evaluation: bitterness reduction of full spectrum CBD hemp oil; details: dosage 50 or 100 ppm per sample
Procedure: (§1) The bitterness blocker candidates listed in Table 1 were prepared into a 1% sample solution with propylene glycol and heated to ensure complete solubilization. […] A full spectrum CBD hemp oil was emulsified into a water-soluble nanoemulsion first, to which was added the respective sample solution. […] A trained sensory evaluator was asked to estimate the perceived bitterness reduction against the control, as well as to provide comments on how the addition of the individual sample solution modulated the taste and mouth feel profile of the resulting oil nanoemulsion.

THC nanoemulsion = test: Sensory evaluation: bitterness reduction of THC; details: dosage 50 or 100 ppm per sample; for Estimated % bitterness reduction: THC nanoemulsion (10 mg THC per serving)
Procedure: The bitterness blocker candidates listed in Table 1 were prepared into a 1% sample solution with propylene glycol and heated to ensure complete solubilization. […] THC was first emulsified into a water-soluble nanoemulsion (10 mg THC per serving), to which was added the respective sample solution. A trained sensory evaluator was asked to estimate the perceived bitterness reduction against the control, as well as to provide comments on how the addition of the individual sample solution modulated the taste and mouth feel profile of the resulting nanoemulsion.

CBD isolate nanoemulsion = test: Sensory evaluation: bitterness reduction of CBD isolate; details: dosage 50 or 100 ppm per sample
Procedure: as §1, with “A” for “A full spectrum”, “isolate” for “hemp oil”, “resulting” for “resulting oil”

[2] = test system: orally consumable composition that includes at least 100 mg/L of bitter tastants; test: Sensory evaluations (summary statement); details: blocker at very low concentrations (e.g., between about 10 ppm and about 200 ppm)
dark roast coffee = test: Sensory evaluation: bitterness reduction of dark roast coffee; details: caffeine about 740 mg/l, dosage 50 or 100 ppm per sample
Procedure: (§2) The bitterness blocker candidates listed in Table 1 were prepared into a 1% sample solution with propylene glycol and heated to ensure complete solubilization. […] A trained sensory evaluator was asked to estimate the perceived bitterness reduction against the control, as well as to provide comments on how the addition of the individual sample solution modulated the taste and mouth feel profile of the resulting dark roast coffee.

[3] = test system: peach-flavored energy drink (caffeine, B vitamins); test: Sensory evaluation: bitterness reduction of a peach-flavored energy drink; details: caffeine about 710 mg/l, dosage (ppm) per sample (20 to 50-100 ppm)
Procedure: as §2, with “peach-flavored energy drink.” for “dark roast coffee.”

[4] = test system: cough syrup ROBITUSSIN DM (dextromethorphan HBr and guaifenesin); test: Sensory evaluation: bitterness reduction of cough syrup ROBITUSSIN DM; details: 21000 mg/l of bitter tastants, dosage 50 or 100 ppm per sample
Procedure: (§3) The bitterness blocker candidates listed in Table 1 were prepared into a 1% sample solution with propylene glycol and heated to ensure complete solubilization. […] Individually, the respective sample solution was added to a cough syrup sold under the trade name ROBITUSSIN® DM. The bitter-tasting agents contained in the cough syrup were dextromethorphan HBr USP 20 mg and guaifenesin USP 400 mg (as measured for each 20 ml serving, or 21000 mg/l of bitter tastants in total). A trained sensory evaluator was asked to estimate the perceived bitterness reduction against the control, as well as to provide comments on how the addition of the individual sample solution modulated the taste and mouth feel profile of the resulting cough syrup.

[5] = test system: melted dark chocolate pieces with 100% dark cacao; test: Sensory evaluation: bitterness reduction of dark chocolate pieces; details: dosage 50 or 100 ppm per sample
Procedure: The bitterness blocker candidates listed in Table 1 were prepared into a 1% sample solution with propylene glycol and heated to ensure complete solubilization. […] Individually, the respective sample solution was added to melted dark chocolate pieces with 100% dark cacao. A trained sensory evaluator was asked to estimate the perceived bitterness reduction against the control, as well as to provide comments on how the addition of the individual sample solution modulated the taste and mouth feel profile of the resulting melted dark chocolate pieces.

[6] = test system: cough syrup DELSYM (dextromethorphan HBr); test: Sensory evaluation: bitterness reduction of cough syrup DELSYM; details: 6000 mg/l of dextromethorphan, dosage 50 or 100 ppm per sample
Procedure: as §3, with “DELSYM®.” for “ROBITUSSIN® DM.”, “agent” for “agents”, “30” for “20 mg and guaifenesin USP 400”, “5” for “20”, “teaspoon, i.e., 6000” for “serving, or 21000”, “dextromethorphan).” for “bitter tastants in total).”

0.25% caffeine solution = test: Sensory evaluation: bitterness reduction of a caffeine solution; details: one trained sensory evaluator, vs control, dosage (ppm) per sample (20 to 50-100 ppm)
Procedure: as §2, with “The bitter” for “The bitterness”, “glycol (i.e., 1 g of bitter blocker per 100 ml of propylene glycol)” for “glycol”, “resulting caffeine solution.” for “resulting dark roast coffee.”

| SMILES | Estimated % bitterness reduction [1] [%] | Estimated % bitterness reduction (THC nanoemulsion) [%] | Estimated % bitterness reduction (CBD isolate nanoemulsion) [%] | also measured |
| --- | --- | --- | --- | --- |
| O=C1c2c(O)cc(O)cc2OC(c2ccc(O)c(O)c2)C1OC1O[C@H](CO)[C@@H](O)[C@H](O)[C@H]1O (stereo partly shown) [BB05, Dihydroquercetin glucoside] | 30 | 30 | 30 | Comments [1]: Some bitterness blocking on the; Comments (THC nanoemulsion; THC nanoemulsion): Some bitterness blocking on the; Comments (CBD isolate nanoemulsion): Some bitterness blocking on the |
| COc1cc([C@@H]2CC(=O)c3c(O)cc(O)cc3O2)ccc1O[C@@H]1O[C@H](CO)[C@@H](O)[C@H](O)[C@H]1O [BB11, Homoeriodictyol 4′-O-glucoside] | – | – | – | reduction of the bitter taste of an orally consumable composition [2]: at least 50% |
| O=C1c2c(O)cc(O)cc2O[C@H](c2ccc(O)c(O)c2)[C@H]1O [BB04, Dihydroquercetin] | 30 | 30 | 30 | Estimated % bitterness reduction (dark roast coffee): 40%; Estimated % bitterness reduction [3]: 40%; Estimated % bitterness reduction [4]: 20%; Estimated % bitterness reduction [5]: 40%; Estimated % bitterness reduction [6]: 20%; Estimated % bitterness reduction (0.25% caffeine solution): 40% |
| O=c1c(O)c(-c2ccc(O)cc2)oc2cc(O)cc(O)c12 [BB03, Kaempferol] | 30 | 30 | 30 | – |
| COc1ccc(-c2cc(=O)c3c(O)cc(O)cc3o2)cc1 [BB01, Acacetin] | 30 | 30 | 30 | – |
